The values that follow come from article PMC4829596 (Frontiers in Microbiology, 2016).

This data set has as its system D. microsporus. Description: Production of the isolated compounds in fungal culture, determined by MS with standards. Also noted: species or system Doratomyces microsporus.
Setting [1] is: supernatant of VPA + Trp treated D. microsporus.
The mark [2] stands for this setting: supernatant of VPA treated (+VPA, 50 μM) D. microsporus.
[3] abbreviates: supernatant of tryptophan treated (+Trp) D. microsporus.
Where [4] appears, read: supernatant of untreated D. microsporus.

As for `O=C(O)Cc1ccccc1` [PAA, phenylacetic acid], the “x-fold of untreated extract” value is, setting by setting: (+Trp) 2.38; (+VPA) 7.5; (VPA + Trp) 4.875. The Amount is, setting by setting: under setting [1], 0.39 mg/L; under setting [2], 0.60 mg/L; under setting [3], 0.16 mg/L; under setting [4], 0.08 mg/L.
As to `O=C1NC(Cc2ccccc2)C(=O)N2CCCC12` [cFP, cyclo-(L-phenylalanine-L-proline)], the “x-fold of untreated extract” value was 0.875 (+Trp), 5 (+VPA) and 1.375 (VPA + Trp). The Amount runs as follows: under setting [1], 0.0011 mg/L; under setting [2], 0.0040 mg/L; under setting [3], 0.0007 mg/L; under setting [4], 0.0008 mg/L.
